The numbers were not newly measured in article PMC9804871, “Effect of Opicapone on Levodopa Pharmacokinetics in Patients with Fluctuating Parkinson's Disease” (Movement Disorders, 2022), which cites them from elsewhere.

Molecules are shown by their SMILES.

For this series the following is noted: cited from earlier work.

Consider `N[C@@H](Cc1ccc(O)c(O)c1)C(=O)O` [LD, levodopa], for which the “half-life of LD” value is on record as “≈ 90 minutes”.
